In patent US7351861B2 (priority 2002, dated 2008):
Some entries share one result that the patent states for a list of compounds. For at least one compound, name, drawing or mass did not settle the structure.

Tested on: bacterial growth of pIB29EL
Type: cell-based, Yersinia pseudotuberculosis

SMILES | Selectivity for inhibition of the luciferase light signal over growth inhibition (in words)
O=C(Nc1ccc(Cl)c(Cl)c1)c1cc(Cl)ccc1NS(=O)(=O)c1cccc2nsnc12 [Compound 5] | clear selectivity for inhibition of the luciferase light signal over growth inhibition
CC(=O)Oc1c(I)cc(I)cc1C(=O)Nc1ccc(Cl)cc1 [Compound 4, 2-acetoxy-4′-chloro-3,5-diiodobenzanilide] | clear selectivity for inhibition of the luciferase light signal over growth inhibition
O=C(N/N=C/c1cc(Br)cc(Br)c1O)c1ccc([N+](=O)[O-])cc1 [Compound 3] | clear selectivity for inhibition of the luciferase light signal over growth inhibition
